Publication doi:10.1101/2024.12.04.626922
Results are given in words; binding and its absence hold for the method and conditions named. In cells and extracts the contact can be indirect. A result given as binding can be weak or reduced; the word gives no strength.

Molecular target: T1, Ras-Associated Protein 2C (RAP2C) (UniProt Q9Y3L5)
T1 sequence: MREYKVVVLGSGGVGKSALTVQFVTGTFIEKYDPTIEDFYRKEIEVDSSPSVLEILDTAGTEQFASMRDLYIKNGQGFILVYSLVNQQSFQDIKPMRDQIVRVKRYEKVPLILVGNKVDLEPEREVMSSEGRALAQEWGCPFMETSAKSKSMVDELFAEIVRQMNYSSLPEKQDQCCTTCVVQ
Assay: co-IP

With “mitogen-activated protein kinase kinase kinase kinase-4 (MAP4K4)” the binding was “binds”.
